This passage reports binding results from patent US20090092640A1.

Amino acid sequences for entries named in this document (tags omitted). A change or cut given only in a name is not applied to a line headed by its entry. Residues count along the entry.
UniProt O43557: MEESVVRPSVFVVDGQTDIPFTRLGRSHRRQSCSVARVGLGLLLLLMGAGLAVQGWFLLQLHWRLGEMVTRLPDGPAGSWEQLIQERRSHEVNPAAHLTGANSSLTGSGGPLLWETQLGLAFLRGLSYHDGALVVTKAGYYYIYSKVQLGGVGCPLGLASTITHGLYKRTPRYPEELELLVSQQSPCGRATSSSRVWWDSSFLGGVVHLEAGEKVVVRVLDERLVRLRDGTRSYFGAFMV
UniProt P50284, residues 31-223: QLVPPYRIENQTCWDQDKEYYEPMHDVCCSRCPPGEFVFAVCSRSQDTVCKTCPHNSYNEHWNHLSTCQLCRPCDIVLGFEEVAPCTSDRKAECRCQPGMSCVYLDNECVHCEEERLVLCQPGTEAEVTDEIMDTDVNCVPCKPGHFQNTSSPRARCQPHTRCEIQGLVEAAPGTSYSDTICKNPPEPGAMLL

No constants are given. Whether binding was seen depends on the method and setting. Some results given as binding are weak or reduced against the parent protein; the word gives no strength.

The assay has as its target mutant human LIGHT (EQLI absent), expressed on AD293 cells (human) (UniProt O43557). In words: flow cytometry, AD293 cells infected with adenovirus for mutant human LIGHT, stained with receptor-Ig. (A flow cytometer gives signals particle by particle.)

Turning to “recombinant mLTbR-huFc protein (from UniProt P50284 31-223) (Fc fusion)”, the binding result was “binds”.
